According to patent US20040209778A1, “Lactone derivative, and plant growth regulator and rooting agent each containing the same as active ingredient” (priority 2001, published 2004):
At least one compound was matched to its structure with a doubt left.

Tested on: adventitious roots of Bupleurum falcatum L.
Test: Rooting test using Bupleurum falcatum L. (1)
Format: cell-based
Design: key to the marks not given beside the values
Conditions: B5 medium, day 24, 23° C., dark
Description: In order to evaluate rooting activity, adventitious roots of Bupleurum falcatum L. were employed. The adventitious roots were obtained by growing the roots of aseptic seedlings by use of IBA. The developed roots were cultured at 23° C. in a B5 liquid medium containing 5 mg/L IBA (for 3 weeks) and in the corresponding B5 liquid medium with no IBA (for 6 weeks) in an alternate manner. The inoculation amount of the roots was 5 g/L, the incubation temperature was 23° C., and subculture was performed in the dark under shaking conditions of 100 rpm. In the rooting test, adventitious roots cultured in IBA-free medium were employed. B5 medium (30-mL) was placed in a 100 mL flask, followed by planting of the roots of Bupleurum falcatum L. (0.2 g) under aseptic conditions. The present lactone derivative, prepared in 10,000 ppm, was added to the flask so as to attain the concentration of 4 ppm or 8 ppm. A sample containing a 4 ppm (final concentration) IBA solution and a sample containing a 8 ppm (final concentration) IBA solution were employed as positive controls, and a corresponding IBA-free sample was employed as a control. Respective samples were cultured under shaking at 100 rpm at 23° C. in the dark, and on day 24, the extent of rooting was checked. The roots were freeze-dried and the weight thereof was measured.

For O=C(O)CCCc1c[nH]c2ccccc12 [IBA, indolebutyric acid, reference compound], the “Degree of Rooting” value (4 ppm final concentration) was “++” and the “Degree of Rooting” value (8 ppm final concentration) was “+++”.
